{
  "source": "patent US20020006953A1",
  "about": "“MODIFICATION OF CHOLESTEROL CONCENTRATIONS WITH CITUS PHYTOCHEMICALS” (priority 1999, published 2002)",
  "origin": "cited, not measured here",
  "settings": "4-5 weeks",
  "note": "Like-named read-outs stand apart in the source and are kept apart here.",
  "data": [
    {"smiles": "Nc1nc2ncc(CNc3ccc(C(=O)N[C@@H](CCC(=O)O)C(=O)O)cc3)nc2c(=O)[nH]1", "note": "[folic acid]", "values": [
      {"measurement": "plasma folate, increase", "setting": "individuals with coronary heart disease, 127 μg daily", "result": 30, "unit": "%"},
      {"measurement": "plasma folate, increase", "setting": "women, 250 μg per day", "result": 100, "unit": "%"}
    ]}
  ]
}
